Measurements reported in the supplement of paper PMC6445147.
This is a noisy data set.

B1: human tRNA-Pro; a variant is named by its letters at N, in order (parent)
chain: GGCTCGTTGGTCTAGNGGTATGATTCTCGCTTAGGGTGCGAGAGGTCCCGGGTTCNNATCCCGGACGAGCCC

Assays:
[1] = variants of: B1; experiment: tRNA Pol-III promoter activity, log2 (circRNA frequency / plasmid DNA frequency) (log2 ratio); higher = stronger promoter activity; conditions: HEK293T; construct: no Pol-II promoter ((-)CMV library)
[2] = variants of: B1; experiment: tRNA 3' processing efficiency (processed reads / all reads, maximum-likelihood estimate) (fraction); higher = more efficient 3' processing; conditions: HEK293T; construct: no Pol-II promoter ((-)CMV library)
[3] = variants of: B1; experiment: tRNA 5' processing efficiency (processed reads / all reads, maximum-likelihood estimate) (fraction); higher = more efficient 5' processing; conditions: HEK293T; construct: CMV Pol-II promoter ((+)CMV library, decapped)

Variant	tRNA Pol-III promoter activity (log2) [1]	tRNA 3' processing efficiency [2]	tRNA 5' processing efficiency [3]
GAC	1.7	0.27	0.21
CAA T53C A58T	3.67	0.57	–
GAA T53A T59A	1.98	0.22	0.44
GAA T53A T59C	3.69	0.27	–
GAA T53A T59G	0.72	0.34	–
CAA T53C	1.79	0.38	–
CAA T53G	2.72	0.29	–
CAA T53A	3.53	0.44	0.33
GAA T53C A58G T59A	4.51	0.4	–
GAA T19G A20T A58C	4.2	0.25	–
GAA T54C C55T	0.169	0.67	–
GAA T19A C55T	-0.963	0.25	–
GAA T54A C55T	-0.253	0.54	–
TAA T19A T54G	3.94	0.62	–
GAA T19C A20G A58T	4.29	0.79	–
GAA T19C T59A	1.64	0.34	0.25
GAA T19C T59C	1.79	0.29	–
CAA T19G	1.43	0.5	–
CAA T19A	0.161	0.25	–
CAA T19C	1.17	0.67	–
CAA T59A	2.7	0.49	–
CAA T59G	1.64	0.34	–
CAA T59C	0.384	0.26	–

Variant	tRNA Pol-III promoter activity (log2) [1]	tRNA 3' processing efficiency [2]	tRNA 5' processing efficiency [3]
GAA T19A T54G	0.881	0.64	–
GAA T19A T54A	2.69	0.72	–
GAA T19G A20C	2.38	0.5	–
GAA T19A A58T T59C	4.53	0.17	–
GAA T54A A58G	1.47	0.46	–
GAA T54A A58C	0.781	0.57	0.83
GAA T54A A58T	0.59	0.42	–
TAA T19G A58T	2.76	0.25	–
CAA T53A T59A	3.5	0.56	0.22
TAA T54G	1.71	0.56	–
TAA T54A	2.33	0.33	0.25
AAA T19A A58G	3.25	0.4	–
CAA T54A C55G	4.26	0.2	–
AAA T19C T53C	4.67	0.4	–
GAA T53G A58C	-0.345	0.5	0.29
GAA T53G A58G	0.908	0.28	–
GAA T19C A58C	4.48	0.88	0.25
GAA T19C A58T	0.313	0.42	–
GAA T19C A58G	0.512	0.47	–
AAA T53G A58G	4.97	0.06	–
CAC	2.12	0.24	–
TAA T19A T53A	3.46	0.25	–
GAC A14C	2.6	0.29	–

Variant	tRNA Pol-III promoter activity (log2) [1]	tRNA 3' processing efficiency [2]	tRNA 5' processing efficiency [3]
TAC	3.38	0.38	0.4
AAA T19A T54A	5.16	0.29	–
CAA T19G C55T	2.51	0.33	–
GAA T53C A58G	0.323	0.5	–
GAA T53C A58T	0.432	0.29	0.14
GAA T32C T59C	6.03	0.5	–
GAA T8G G36A	5.25	0.3	–
GAA T19G C62T	6.74	0.43	–
AAA T53A A58G	7.08	0.86	–
AAA T53A A58T	3.62	0.25	–
GAA T8G T53G T54A C55A T59C	4.45	0.75	–
CAA T54G C55T	4.56	0.77	–
AAA T19C C55T	3.12	0.25	–
AAA T54A T59C	10.8	0.06	–
GAA T8G T54C C55T	5.26	0.2	–
GAA T19G T54A	2.16	0.8	–
CAA T19C T54A	4.67	0.4	–
GAA T53G A58G T59A	5.77	0.26	–
TAA T19C T54A	4.51	0.67	–
GAA T53A A58T T59G	5.26	0.5	–
TAA T19G T54A	3.03	0.25	–
GAA T53A A58T	0.621	0.4	–
GAA T53A A58C	-0.0718	0.5	–

Variant	tRNA Pol-III promoter activity (log2) [1]	tRNA 3' processing efficiency [2]	tRNA 5' processing efficiency [3]
GAA T53A A58G	1.7	0.43	–
GAA T19A A20C C55A	3.73	0.22	–
GAA T19A A20C C55T	3.86	0.05	–
GAA T19A A20T A58G	2.24	0.25	–
GAA T19A A20T A58T	5.07	0.31	–
TAA T19G T59C	3.13	0.25	–
TAA T19G T59G	4.58	0.57	–
GAA T19C C55T	-0.408	0.4	–
GAA T19C C55G	1.19	0.4	–
AAA T54A	0.397	0.17	–
GAA T54A A58G T59A	3.61	0.25	–
GAA T54A A58G T59G	4.44	0.7	–
GAA T19C T53G A58G	3.13	0.25	–
GAA T19A A20T	1.1	0.56	–
GAA T19G C55T A58T	2.03	0.25	–
AAC	1.22	0.24	–
GAA T19C A20C	0.298	0.25	–
AAA T19A C55T	1.83	0.33	–
GAA T53G	0.806	0.29	0.17
GAA T53C	0.598	0.25	0.3
GAA T53A	2.7	0.39	0.22
GAA T54C C55G T59C	4.44	0.38	–
GAA T19A T54A T59C	4.93	0.5	–

Variant	tRNA Pol-III promoter activity (log2) [1]	tRNA 3' processing efficiency [2]	tRNA 5' processing efficiency [3]
GAA T19A A58G T59C	4.84	0.87	–
GAA T19A A58G T59A	5.51	0.33	–
GAA T19A A58G T59G	2.57	0.25	–
GAA T54A T59A	0.891	0.33	–
GAA T54A T59C	2.39	0.36	–
TAA T53C	0.578	0.4	–
TAA T53G	1.23	0.24	–
TAA T53A	3.44	0.2	–
GAA T19C A58G T59C	4.58	0.36	–
GAA T19C A58G T59A	4.97	0.38	–
GAA T19C A58G T59G	8.11	0.22	–
CAA T19A T53G	2.86	0.25	–
GAA T19C T54A	1.02	0.2	–
GAA T8G T54A	0.712	0.5	0.5
AAA T19A A20G	4.03	0.7	–
AAA T19G T53A	4.03	0.25	–
GAA T8G T19G	-0.365	0.2	–
GAA T8G T19A	-0.365	0.2	–
TAA T54A A58C	4.03	0.25	–

Some of the entries above, reformatted:
Variant | tRNA Pol-III promoter activity (log2) [1] | tRNA 3' processing efficiency [2] | tRNA 5' processing efficiency [3]
GAA T19G A20T A58C | 4.2 | 0.25 | –
GAA T54C C55T | 0.169 | 0.67 | –
GAA T19A C55T | -0.963 | 0.25 | –
GAA T54A C55T | -0.253 | 0.54 | –
TAA T19A T54G | 3.94 | 0.62 | –
GAA T19C A20G A58T | 4.29 | 0.79 | –
GAA T19C T59A | 1.64 | 0.34 | 0.25
GAA T19C T59C | 1.79 | 0.29 | –
CAA T19G | 1.43 | 0.5 | –
CAA T19A | 0.161 | 0.25 | –
CAA T19C | 1.17 | 0.67 | –
CAA T59A | 2.7 | 0.49 | –
CAA T59G | 1.64 | 0.34 | –
CAA T59C | 0.384 | 0.26 | –
GAA T19A T54G | 0.881 | 0.64 | –
GAA T19A T54A | 2.69 | 0.72 | –
GAA T19G A20C | 2.38 | 0.5 | –
GAA T19A A58T T59C | 4.53 | 0.17 | –
GAA T54A A58G | 1.47 | 0.46 | –
GAA T54A A58C | 0.781 | 0.57 | 0.83
GAA T54A A58T | 0.59 | 0.42 | –
TAA T19G A58T | 2.76 | 0.25 | –
CAA T53A T59A | 3.5 | 0.56 | 0.22
TAA T54G | 1.71 | 0.56 | –
TAA T54A | 2.33 | 0.33 | 0.25
AAA T19A A58G | 3.25 | 0.4 | –
CAA T54A C55G | 4.26 | 0.2 | –
AAA T19C T53C | 4.67 | 0.4 | –
GAA T53G A58C | -0.345 | 0.5 | 0.29
GAA T53G A58G | 0.908 | 0.28 | –
GAA T19C A58C | 4.48 | 0.88 | 0.25
GAA T19C A58T | 0.313 | 0.42 | –
GAA T19C A58G | 0.512 | 0.47 | –
